Here are results for one substance from paper doi:10.1101/2023.07.20.549862.

Results are given in words; binding and its absence hold for the method and conditions named. In cells and extracts the contact can be indirect. Binding calls can cover weak binding; strength is not graded here.

The assay addresses Xenopus laevis PP1c (XePP1c) (Xenopus laevis (endogenous in oocytes)) (UniProt P36874). Nature of the assay: co-IP.

With “HA-tagged PbRpt3 protein (translated from cRNA in Xenopus oocytes) (from UniProt A0A509AIQ8)”, the binding result is recorded as “binds”.
